# In the supplement of paper PMC4749390:
# Values joined by “and” are separate entries in the source; they are usually repeats but may differ in a detail not shown here. Identical values can stand only once. Counter-ions that a name gives are not always drawn. This is one part of the list. Repeats in this data set agree poorly, so a single value says little.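 Wild-type human LRH-1, a heavily sumoylated nuclear receptor, is tetracycline-inducible in stable JEG3 cells. RT-qPCR measured SUMO-sensitive APOC3 and MUC1 transcripts, which rise with SUMO-less LRH-1 or UBC9 knockdown, versus TBP and DMSO controls. Robust Z-scores beyond ±2 flagged primary hits, followed by toxicity and TBP filtering.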
# Test system: JEG3 expressing hLRH-1
# Assay: MUC1 transcript change (ddCt vs TBP and DMSO), Z-score over library; higher = higher MUC1 expression
# Details: 10 µM; time (hr): 24
row,Compound,MUC1 transcript change (Z-score)
1,NCCS [Cysteamine hydrochloride],0.672
2,Cc1c(NC(=O)c2cccnc2)c(=O)n(-c2ccccc2)n1C [nifenazone],-1.85
3,CC(O)CC(C)(C)O (stereo not given) [hexylene glycol],0.287
4,O=C(O)c1ccccc1-c1c2cc(I)c(=O)c(I)c-2oc2c(I)c(O)c(I)cc12 [erythrosine sodium],-0.898
5,CC1=C(CC(=O)O)c2cc(F)ccc2/C1=C\c1ccc(S(C)=O)cc1 (stereo not given) [Sulindac],-1.3
6,C#CCN[C@@H]1CCc2ccccc21 [rasagiline],0.119
7,CCOC(=O)c1ccc(O)cc1 [ethyl paraben],0.794
8,CCN(CC)CCNC(=O)c1ccc(NC(C)=O)cc1 [N-Acetylprocainamide hydrochloride],0.767
9,Clc1ccc(Cn2c(CN3CCCC3)nc3ccccc32)cc1 [clemizole hydrochloride],-0.464
10,Cc1c(N(C)C)c(=O)n(-c2ccccc2)n1C [aminopyrine],0.236
11,C#C[C@]1(O)CCC2C3CCC4=CC(=O)CC[C@@H]4C3CC[C@@]21CC (stereo not given in full) [norgestrel],0.183
12,O=C(O)CCCCC1SCC2NC(=O)NC21 (stereo not given) [biotin],0.707
13,CC(C)(C)NCC(O)c1ccc(O)c(CO)c1 (stereo not given) [Albuterol hemisulfate],0.994
14,S=C=Nc1ccc(N=C=S)cc1 [bitoscanate],0.351
15,CCCC(CCC)C(=O)O [Valproic acid sodium],0.405
16,Cc1onc(-c2ccccc2)c1C(=O)N[C@@H]1C(=O)N2[C@@H]1SC(C)(C)[C@@H]2C(=O)O [oxacillin sodium],0.35
17,CCN(CCCc1ccccc1)CCCc1ccccc1 [alverine citrate],0.906
18,CCn1cc(C(=O)O)c(=O)c2cc(F)c(N3CCN(C)CC3)cc21 [pefloxacine mesylate],0.397
19,Clc1ccc(C(c2ccccc2Cl)C(Cl)Cl)cc1 (stereo not given) [mitotane],0.775
20,CCCc1nc2c(C)cc(-c3nc4ccccc4n3C)cc2n1Cc1ccc(-c2ccccc2C(=O)O)cc1 [telmisartan],0.607
21,CCCNCC(O)COc1ccccc1C(=O)CCc1ccccc1 (stereo not given) [propafenone hydrochloride],0.68
22,CCCN(CCC)CCc1cccc2c1CC(=O)N2 [ropinirole hydrochloride],1.18
23,CC(C)/N=c1\cc2n(-c3ccc(Cl)cc3)c3ccccc3nc-2cc1Nc1ccc(Cl)cc1 [clofazimine],0.141
24,CC1(C)S[C@@H]2[C@H](N3C(=O)[C@@H](c4ccccc4)NC3(C)C)C(=O)N2[C@H]1C(=O)O [hetacillin potassium],0.715
25,CO[C@H]1C[C@H](O[C@H]2[C@H](C)[C@@H](OC3O[C@H](C)C[C@H](N(C)C)[C@H]3O)[C@@H](C)C[C@]3(CO3)C(=O)[C@H](C)[C@@H](O)[C@@H](C)[C@@H](C)OC(=O)[C@@H]2C)O[C@@H](C)[C@@H]1O (stereo not given in full) [oleandomycin phosphate],-0.275
26,NC[C@H]1CC[C@H](C(=O)O)CC1 [tranexamic acid],-0.377
27,Cc1nc(-c2ccc(OCC(C)C)c(C#N)c2)sc1C(=O)O [febuxostat],1.57

row,Compound,MUC1 transcript change (Z-score)
1,CC1(O)CCC(C(C)(C)O)CC1 (stereo not given) [terpene hydrate],0.325
2,CN(C)CCC[C@@]1(c2ccc(F)cc2)OCc2cc(C#N)ccc21 [escitalopram oxalate],0.954 and 0.714
3,CCCCCCc1ccc(O)cc1O.Nc1c2ccccc2nc2ccccc12 [acrisorcin],3.15
4,Cc1nc(Nc2ncc(C(=O)Nc3c(C)cccc3Cl)s2)cc(N2CCN(CCO)CC2)n1 [dasatinib],-2.07
5,CCN(CC)CCOC(=O)C(c1ccccc1)c1ccccc1 [adiphenine hydrochloride],0.075
6,O=C(c1ccc(F)cc1)C1CCN(CCn2c(=O)[nH]c3ccccc3c2=O)CC1 [Ketanserin tartrate],0.488
7,N[C@H](Cc1cc(I)c(Oc2ccc(O)c(I)c2)c(I)c1)C(=O)O [liothyronine],0.609
8,O=S(=O)(O)CCSSCCS(=O)(=O)O [dimesna],0.765
9,COc1ccc(-c2ccc3cc(C(=O)O)ccc3c2)cc1C12CC3CC(CC(C3)C1)C2 [adapalene],-1.46
10,C[C@@H]1CC(=O)NN=C1c1ccc(NN=C(C#N)C#N)cc1 [levosimendan],-0.939
11,Cc1cc(NS(=O)(=O)c2ccc(N)cc2)no1 [sulfamethoxazole],-0.86
12,O=C1OCCN1/N=C/c1ccc([N+](=O)[O-])o1 [furazolidone],0.524
13,CCCCOc1ccc(OCCCN2CCOCC2)cc1 [pramoxine hydrochloride],0.0979
14,CC1OC1P(=O)(O)O (stereo not given) [fosphomycin],1.34
15,CC(C)[C@H]1CC[C@H](C(=O)N[C@H](Cc2ccccc2)C(=O)O)CC1 [nateglinide],0.489
16,Cc1ccc(C(=O)Nc2ccc(S(=O)(=O)O)c3cc(S(=O)(=O)O)cc(S(=O)(=O)O)c23)cc1NC(=O)c1cccc(NC(=O)Nc2cccc(C(=O)Nc3cc(C(=O)Nc4ccc(S(=O)(=O)O)c5cc(S(=O)(=O)O)cc(S(=O)(=O)O)c45)ccc3C)c2)c1 [Suramin hexasodium],0.524
17,Cc1nnc(SCC2=C(C(=O)O)N3C(=O)[C@@H](NC(=O)Cn4cnnn4)[C@H]3SC2)s1 [cefazolin sodium],0.418
18,CC(=O)CCCCn1c(=O)c2c(ncn2C)n(C)c1=O [Pentoxifylline],0.615
19,O=C(O)[C@H](O)[C@@H](O)[C@H](O)[C@H](O)CO [sodium gluconate],0.428
20,NS(=O)(=O)c1cc2c(cc1Cl)NC(C(Cl)Cl)NS2(=O)=O (stereo not given) [trichlormethiazide],-0.764
21,O=C1Cc2cc(CCN3CCN(c4nsc5ccccc45)CC3)c(Cl)cc2N1 [ziprasidone mesylate],0.135
22,CCC(C)(C)c1ccc(CC(C)CN2C[C@@H](C)O[C@@H](C)C2)cc1 (stereo not given in full) [amorolfine hydrochloride],0.433
23,CC(=O)OCC1=C(C(=O)O)N2C(=O)[C@@H](NC(=O)CSc3ccncc3)[C@H]2SC1 [cephapirin sodium],0.307
24,CC[C@]12CCCN3CCc4c(n(c5ccccc45)[C@@](O)(C(=O)OC)C1)[C@@H]32 [vincamine],-0.572
25,O=C(CCCN1CCC(O)(c2ccc(Br)cc2)CC1)c1ccc(F)cc1 [bromperidol],0.943
26,C[C@@H]1CC2C3C[C@H](F)C4=CC(=O)C=C[C@]4(C)[C@@]3(F)[C@@H](O)C[C@]2(C)[C@@]1(O)C(=O)COC(=O)C(C)(C)C (stereo not given in full) [flumethazone pivalate],-0.567
27,Cc1ccc(C(=O)c2ccc(CC(=O)O)n2C)cc1 [tolmetin sodium],0.123

row,Compound,MUC1 transcript change (Z-score)
1,C=CCCCCCCCCC(=O)O [undecylenic acid],0.787 and 1.13
2,C/N=C(/NC#N)NCCSCc1[nH]cnc1C [Cimetidine],0.871
3,NC(=O)c1cccnc1 [niacinamide],-1.53
4,Nc1nccs1 [aminothiazole],1.3
5,N=C(N)NCCN1CCCCCCC1 [guanethidine sulfate],0.445
6,CCCCCCCCCCCCCCCC[N+](C)(C)C [cetrimonium bromide],0.873
7,CC1=C(C(=O)O)N2C(=O)[C@@H](NC(=O)[C@H](N)c3ccc(O)cc3)[C@H]2SC1 [cefadroxil],0.301
8,COC(=O)C1=C(C)N=C(C)/C(=C(/O)OC)C1c1ccccc1[N+](=O)[O-] (stereo not given) [Nifedipine],-1.79
9,CN(C)c1ccc(O)c2c1C[C@H]1C[C@H]3[C@H](N(C)C)C(=O)C(C(N)=O)=C(O)[C@@]3(O)C(=O)C1=C2O [minocycline hydrochloride],1.86
10,CCc1cc(C(N)=S)ccn1 [ethionamide],-0.181
11,CC1=C(/C=C/C(C)=C/C=C/C(C)=C/CO)C(C)(C)CCC1 [retinol],0.0634
12,C=C[C@H]1CN2CC[C@H]1C[C@@H]2[C@@H](O)c1ccnc2ccc(OC)cc12 [quinidine gluconate],1.09
13,CN(C)CC/C=C1\c2ccccc2Sc2ccc(Cl)cc21 [chlorprothixene hydrochloride],-0.443
14,Nc1ccc(N=Nc2ccccc2)c(N)n1 [phenazopyridine hydrochloride],0.0264
15,CCN(CC)C(=O)N1CCN(C)CC1 [diethylcarbamazine citrate],-0.106
16,CC(=O)[C@H]1CC[C@H]2[C@@H]3CC=C4C[C@@H](OC(=O)CCC(=O)O)CC[C@]4(C)[C@H]3CC[C@]12C [pregnenolone succinate],0.389
17,CN1CCN(C2=Nc3cc(Cl)ccc3Nc3ccccc32)CC1 [Clozapine],1.1
18,NCCC[C@H](N)CC(=O)N[C@H]1CNC(=O)[C@H]([C@H]2C[C@H](O)N=C(N)N2)NC(=O)/C(=C/NC(N)=O)NC(=O)[C@H](CO)NC(=O)[C@H](CO)NC1=O [viomycin sulfate],0.993
19,Nc1cc(-c2ccncc2)cnc1O [amrinone],-0.341
20,NC(=O)NO [hydroxyurea],0.269
21,CN/C(=C\[N+](=O)[O-])NCCSCc1csc(CN(C)C)n1 [nizatidine],0.808
22,CCCCOc1ccc(CC(=O)NO)cc1 [bufexamac],-0.511
23,CC(=O)Oc1cc(C(C)C)c(OCCN(C)C)cc1C [moxisylyte hydrochoride],-0.605
24,Nc1ccn(C2CSC(CO)O2)c(=O)n1 (stereo not given) [lamivudine],-1.28
25,Clc1ccccc1C(c1ccccc1)(c1ccccc1)n1ccnc1 [clotrimazole],0.807
26,CCc1nn(CCCN2CCN(c3cccc(Cl)c3)CC2)c(=O)n1CCOc1ccccc1 [nefazodone hydrochloride],-0.944
